According to publication PMC10148159:

Target: DNA polymerase beta (Pol β) (Homo sapiens) (UniProt P06746)
Assay: single-molecule TIRF
Conditions: 2.5 mM EDTA, very few stable complexes longer than about 1 s, 50 mM Hepes pH 7.4, 150 mM NaCl, 0.1 mg/ml BSA, 0.8% glucose, ~10 mM Trolox, catalase 0.04 mg/ml, glucose oxidase 1 mg/ml, room temperature, recombinant protein, label: 5'-biotin on strand 1 (immobilized), letters put together from the description

## TGTGTGGAATACAGTGAGCGCAACG (double strand) [undamaged DNA 25-mer]
  binding result: binds more weakly

For at least one entry, the source does not settle the construct or the ends of the probe. A weaker result is weaker than the reference pair of the same experiment.
